From PubChem BioAssay AID1347423 (Functional Genomics Laboratory (NCATS/FGL), 2020)
Out of some 52,000 sequences screened, about 210 (0.4%) were called active.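 How the source made its calls: active means gene whose silencing raises cell survival under the drug, median off-target-corrected z-score across its silencing RNAs 2 or more; inactive means the rest.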 The list shows a part of the results.

Assay: Resistance to Poly (ADP-Ribose) Polymerase inhibitor: Gene Identification via Genome-wide siRNA Screen
Settings: mouse BRCA2 R2336H ES cells, olaparib, CellTiter-Glo viability; stronger effect = higher value
Description: The role of Poly (ADP-Ribose) Polymerase (PARP) proteins in DNA repair has been elegantly utilized for the synthetic lethality-based treatment of BRCA-deficient tumors by PARP inhibitors. PARP inhibitors are now being used for treatment of BRCA-deficient breast and ovarian cancers. […] While several mechanisms of drug resistance have been identified, majority of these tumors develop drug resistance due to unknown causes. To identified novel regulators of chemo-resistance in BRCA2-mutated cells, we performed a genome wide siRNA library screen. We have found ES cells expressing a hypomorphic allele of BRCA2 to be hypersensitive to PAPP inhibitors (such as olaparib). We used ES cells expressing a mutant allele of BRCA2 that has a single amino acid substitution at position 2336 (arginine to histidine, R2336H). The screen was conducted using an Ambion (Thermo) Silencer Mouse Genome siRNA collection. The library targets 17,575 mouse genes with 3 siRNAs per gene. TET2 (E130014J05Rik) was identified as a top candidate.
Transfections were performed in 384 well plates (Corning 3707). Plates were coated with 0.1% gelatin in H2O overnight at ambient temperature. Gelatin solution was aspirated (BioTek EL406) and siRNAs were printed using a Bravo VPrep liquid handler integrated within a BioCel automation platform (Agilent). Cell viability was measured using CellTiter Glo (Promega). For transfections, […] of serum free media containing Lipofectamine RNAiMax […] was added to wells containing siRNA (0.8pmol). Lipid and siRNA were allowed to complex for 45 min at ambient temperature before addition of 1000 cells in DMEM, 30% FBS to yield final transfection mixtures containing 20 nM siRNA in DMEM, 15% FBS. PARPi (olaparib, AZD2281) was added 48 h post-transfection (500 nM) and viability (CellTiter Glo, Promega) was assayed 72 h later on a PerkinElmer Envision 2104 Multilabel plate reader. Ambion Silencer Select Negative Control #2 was incorporated on all screening plates (16 wells) and the median negative control value on each plate was used for normalization. An siRNA targeting Trp53 was used as a positive control. This control yielded a median protective effect of ~1.9 fold versus negative control throughout the screen. The median absolute deviation (MAD) based z-score was calculated for each siRNA. Genes were then ranked by taking the median value for all siRNAs tested against a given gene. Scores were also adjusted for seed-based off-target effects to help deprioritize likely false positives.

Row | Sequence | z-score
1 | GGUUAUUGAGGAGUUCUACTT against Slc2a1 | inactive: -0.111
2 | GGACAAGGUAUCAUAUUGGTT against Siat4a | inactive: -0.171
3 | GGAGUUAAAGAGCUUAGGCTT against Cstf2t | inactive: -0.976
4 | GGCAUCAGAGCAUCUGUGCTT against Ankrd16 | inactive: -1.4
5 | GCUUGUUAAAAACGAAUUCTT against 4921510H08Rik | inactive: 0.058
6 | GGUAACUGUGGACUUGCUUTT against Olfr1213 | inactive: 0.36
7 | GGAAAGACUACAAGAAUUUTT against 1700013H19Rik | inactive: 2.87
8 | CGCGCUUCUACUUUUUUUATT against Titf1 | inactive: -0.765
9 | CGAGAGCAUUAAUUACUUCTT against Sulf1 | inactive: 0.635
10 | GCUGGAUUACAUCACAUACTT against Sf3a3 | inactive: -1.89
11 | GGCAGACAGUCUAACAGAUTT against Krt2-6a | inactive: 0.914
12 | ACAAAUAUUCCCUGGCCACTT against Slc39a13 | inactive: -1.4
13 | GGAGGAGCCUGUUCCAGAATT against Bcl7c | inactive: -2.49
14 | GGUGGACUACUCACGAUUCTT against Kcnj4 | inactive: -0.284
15 | GCAACUCAAUCUGGUCACUTT against Psme1 | inactive: 0.489
16 | GCACACGAUUCCUCAUGGATT against Pigw | inactive: 1.87
17 | GCCAAUGCAGGGUAAGUACTT against D330034A10Rik | inactive: 0.657
18 | GGAGUUGUAAAGUUUGGCUTT against Slc12a2 | inactive: 0.512
19 | GGUGAUUCACAUAACAGGCTT against Npas3 | inactive: 0.663
20 | GGGAGUUCAACUUGAUGUATT against Irf6 | inactive: -0.685
21 | GCCUACAUUCACUCACUCCTT against Olfr1061 | inactive: -0.166
22 | GGCAUGUGUGAGAAUCAAUTT against Clrf | inactive: -0.251
23 | GGAGAUCGAGUUCAACAUUTT against Olfr557 | inactive: -0.792
24 | GGUUUUUCUCACUUUUGUATT against Siah1a | inactive: -0.665
25 | GGUGAAUUCAACUCUCUAATT against Decr1 | inactive: 0.568
26 | GGAGGAAAAAAAGUGAAGATT against Zfp339 | inactive: 0.689

Row | Sequence | z-score
27 | GGGCAAUGUUUGUCACUAATT against 2310005E10Rik | inactive: 1.62
28 | GGUGCAAGAUAGUACGAUGTT against Gle1l | inactive: -2.71
29 | CCUUUCAUACCUUAGGUUATT against B430110G05Rik | inactive: 0.631
30 | GGAGCUUAGUCUAAUUGAATT against Ms4a6c | inactive: 0.226
31 | GGUACACCACAAUCCUCACTT against Olfr676 | inactive: -0.646
32 | GGCAAAUAAAUGAUCCAAATT against Echs1 | inactive: 0.5
33 | GGAGAUGAUUUCCUACUUCTT against Rasgrp2 | inactive: 0.191
34 | CGCAUACUGAUGAUAACUATT against Zfp75 | inactive: -0.568
35 | GGUCAAAUGCACCCGAUUATT against Hoxc10 | inactive: -0.393
36 | GCCACCUUCCAAGCUCAAATT against Hist3h2ba | inactive: -0.9
37 | GGUGUGUAUGAUGCUGGCATT against Olfr1508 | inactive: -0.955
38 | GGAAACCUCCGAAAGGCAUTT against D12Wsu95e | inactive: 0.434
39 | GGAGAAGAAUUCAUUUCUCTT against Myst2 | inactive: 0.764
40 | GAAUCCUACGGUUGAAUAUTT against Hrmt1l3 | inactive: 0.58
41 | GGCAUUGAACAAGAAAGAATT against Mef2c | inactive: -0.0416
42 | CCCUAGCUAUAAAACUCUCTT against Rabif | inactive: 0.363
43 | GAAACUACACCUCAGAGUGTT against AI481500 | inactive: -1.7
44 | GGUCGAACAGAAGAUUGCUTT against Got1 | inactive: -0.989
45 | GGAUUCUGAGCGUAGCUGATT against BC038925 | inactive: -0.295
46 | GCUGAACUAUAACUUGAAATT against Stat1 | inactive: 0.735
47 | GAGGGAAAUACAUUCUAACTT against NMS | inactive: 0.736
48 | GGCAAACUAUGCCUUCAAGTT against Cib2 | inactive: 0.426
49 | UCCUGUCUGGUUCCUUUUUTT against 3300001H21Rik | inactive: 1.72
50 | CGCAAUACCAGCAAAAGACTT against Tmem7 | inactive: 0.219
51 | GGAAGACAGCACCAUGAACTT against Il17f | inactive: 1.59
52 | CCCUAAUAAAUUCCAAAUCTT against H2-Ke6 | inactive: 1.19

Looked up above.
For z-score, CGCAUACUGAUGAUAACUATT against Zfp75 is listed with inactive: -0.568
For z-score, UCCUGUCUGGUUCCUUUUUTT against 3300001H21Rik is listed with inactive: 1.72

Next results

Row | Sequence | z-score
53 | GGGUCCACAUCUUGAGCUUTT against Fxyd7 | inactive: -1.3
54 | CCUUAAGAUCAUUUACCCATT against Mixl1 | inactive: 0.246
55 | GGAGAGACCUCUGAGAUUGTT against Ephb6 | inactive: -1.49
56 | GCCCUAGAACUUUUGAAUUTT against Dhx15 | inactive: -1.01
57 | GACUGCUACAAGGUGAAGATT against Mrpl36 | inactive: 0.682
58 | GCUAGGCAGUGAAGUUGAUTT against Atf4 | inactive: -2.35
59 | CGAGGUACUCCAGAAUAGATT against Gdf8 | inactive: -0.886
60 | GGCUUUGAUCAGCUCAGAATT against C530050O22Rik | inactive: -1.15
61 | GGAUCUGAAGGUGAUGUCATT against H2-Q10 | inactive: -3.34
62 | GGGCAUCCAGGAUUAUGUGTT against Vamp5 | inactive: 0.216
63 | AGAGAUGGAAAGUGGUUUCTT against Olfr1226 | inactive: 1.65
64 | GGGACUUGGAUCGAAUGGATT against Apeh | inactive: 1.74
65 | GCUUCUUACAGUUUGCCCATT against V1rd6 | inactive: 0.146
66 | GCUCUUUCUAGCCCUUCCCTT against Spry3 | inactive: -0.575
67 | UCACUUGUACCAAAAAUGATT against Adcy1 | inactive: -0.552
68 | GCGCAUGCAACAGAAGUAUTT against D130016K21Rik | inactive: 0.00483
69 | GGAAAAGUUGCAUUUGGUCTT against Wdr17 | inactive: -0.539
70 | CCAGAAGCCAACUAUCUUUTT against Ppp1cb | inactive: 1.93
71 | GGAUGCUCUCUUAAAUGGATT against AI595338 | inactive: -0.0806
72 | GAUCUUAUAUGUUGGUGGUTT against V1rc2 | inactive: -0.413
73 | GGCUUGUGGCCUUAUCUGATT against Comtd1 | inactive: 0.643
74 | CGGUCUUCAAGCUCCCUCATT against Olfr627 | inactive: -0.737
75 | GCUUGACCCUACACUACAGTT against Olfr1121 | inactive: 1.25
76 | GAACAGUCCUUUUAUGGAUTT against V1rc14 | inactive: 0.108
77 | CGAACUCAAGAGUGUGGAGTT against Becn1 | inactive: -0.83
78 | GGAAAGAGCACCAAUUUUUTT against Ccr5 | inactive: 0.926

Copied from above, nos. 62 to 64
Row | Sequence | z-score
62 | GGGCAUCCAGGAUUAUGUGTT against Vamp5 | inactive: 0.216
63 | AGAGAUGGAAAGUGGUUUCTT against Olfr1226 | inactive: 1.65
64 | GGGACUUGGAUCGAAUGGATT against Apeh | inactive: 1.74

Later entries

Row | Sequence | z-score
79 | GGAAGGUGGUGUCAAAAUGTT against 3-Sep | inactive: -0.692
80 | GGAUAAUAGCAGCUUAUACTT against Ccl11 | inactive: 0.759
81 | GGGCCAUCACACACCCUAATT against Ctrl | inactive: -1.43
82 | GGUGGAGAAGCUCAUUGCUTT against Zap70 | inactive: -0.0251
83 | GGAUUUGAGUUGAAGCGUGTT against Zfp31 | inactive: -0.623
84 | GGGUCAGAUGCAGACUGUUTT against 9030611O19Rik | inactive: 0.403
85 | GCAGAUUGAAUCAUCCAUGTT against Nipa | inactive: -0.415
86 | GGCAACAGGACUGCCAAAUTT against Arhgap12 | inactive: -2.12
87 | GGAGCAUUGCUUCUCUGACTT against 6030445D17Rik | inactive: -1.34
88 | GGAGUUAAUCAGUCAAAUGTT against 6330415M09Rik | inactive: 1.86
89 | GCAUUACCAAGGCGAUUUUTT against Ren2 | inactive: 0.285
90 | GGUCCUGUGGAUAACAAUATT against Inha | inactive: -1.15
91 | GCGAUUAACGGAUCGUACCTT against 1110019O13Rik | inactive: -0.0989
92 | GGACAGCGAUAUCUCAAUATT against 1700001P01Rik | inactive: 0.463
93 | GCAUCUCUCUACCAUUGACTT against 1200004M23Rik | inactive: -1.98
94 | CGUACUAUGGUGCUUUCAUTT against Map4k4 | inactive: -0.787
95 | GCAACAGUUAACCAUUAGCTT against Ms4a6b | inactive: -0.445
96 | CCAGAAUGUAAAACAACCGTT against Zfp365 | inactive: 1.5
97 | GGCCUACUCAAUCAAAGACTT against Tigd5 | inactive: -0.465
98 | CUGAUUCUGGGAAACAGUATT against Tas2r123 | inactive: 0.0544
99 | GGUCUUCAGCCCAAGAAAUTT against Dsg2 | inactive: 1.21
100 | CCUAGGAUAGAGAUUGUUGTT against 4733401H18Rik | inactive: -0.815
101 | GGGUAAGACAUACAACAUATT against Attp | inactive: -0.772
102 | GGUUUUUACAGAAGUACAUTT against Atm | inactive: -2.49
103 | GGAUCCUAAAAUGAAAAAGTT against 1700006C19Rik | inactive: -0.482
104 | GGACAGACUGAUUAAGAAATT against 1700019B16Rik | inactive: 2.44
